Assay results taken from article doi:10.1101/2023.03.20.533581.
Results are given in words; binding and its absence hold for the method and conditions named. Binding seen in cells or lysates may run through a third protein. Some results given as binding are weak or reduced against the parent protein; the word gives no strength. For some assays here: Sequences can lack the tags named with a protein. One block for each molecule: values may come before it.

Sequences of proteins named here, by UniProt entry; tags and fusion partners are left off. Residues count along the entry.
UniProt Q9I9N6: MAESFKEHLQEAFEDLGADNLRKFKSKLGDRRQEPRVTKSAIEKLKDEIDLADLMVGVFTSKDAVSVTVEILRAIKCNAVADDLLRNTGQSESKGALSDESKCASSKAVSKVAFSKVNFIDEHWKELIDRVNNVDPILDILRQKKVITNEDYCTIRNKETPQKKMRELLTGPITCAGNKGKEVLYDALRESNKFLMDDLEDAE
UniProt O14727, residues 1-90: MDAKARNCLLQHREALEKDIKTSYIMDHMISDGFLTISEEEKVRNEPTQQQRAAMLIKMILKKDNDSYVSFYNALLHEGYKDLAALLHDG

Key:
[1] = target: ASC from zebrafish (Danio rerio), mEos3.1 fusion (Danio rerio) (UniProt Q9I9N6); experiment: FRET or BRET; DAmFRET: ratiometric FRET (AmFRET) between the green and the photoconverted red form of mEos3.1 fused to the same protein, single living S. cerevisiae cells by flow cytometry over the range of expression, no seed
[2] = target: APAF1^CARD, mEos3.1 fusion (human) (UniProt O14727); experiment: FRET or BRET; DAmFRET of a DFD-mEos3 fusion with a DFD-μNS-mCardinal seed expressed in trans in S. cerevisiae; the FRET is between copies of the mEos3 fusion; a nucleating interaction is a lower C50 and a larger assembled fraction (seedability at least 3 SD above the mean)
[3] = target: T1, TRADD, full-length (FL), mEos3.1 fusion (human), Q15628; experiment: FRET or BRET; DAmFRET: ratiometric FRET (AmFRET) between the green and the photoconverted red form of mEos3.1 fused to the same protein, single living S. cerevisiae cells by flow cytometry over the range of expression, no seed; settings: remark: other sources report otherwise
T1 chain: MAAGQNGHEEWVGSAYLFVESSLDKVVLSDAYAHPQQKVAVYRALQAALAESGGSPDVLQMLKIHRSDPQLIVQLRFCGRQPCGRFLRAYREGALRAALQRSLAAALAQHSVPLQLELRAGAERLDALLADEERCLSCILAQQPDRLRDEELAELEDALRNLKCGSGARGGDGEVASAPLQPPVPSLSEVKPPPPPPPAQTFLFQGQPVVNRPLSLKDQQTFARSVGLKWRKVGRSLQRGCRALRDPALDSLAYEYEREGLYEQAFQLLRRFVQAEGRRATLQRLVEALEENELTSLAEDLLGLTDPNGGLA

[4] = target: T2, FADD, full-length (FADD^FL), mEos3.1 fusion (human), Q13158; experiment: FRET or BRET; DAmFRET of a DFD-mEos3 fusion with a DFD-μNS-mCardinal seed expressed in trans in S. cerevisiae; the FRET is between copies of the mEos3 fusion; a nucleating interaction is a lower C50 and a larger assembled fraction (seedability at least 3 SD above the mean); settings: remark: other sources report otherwise
T2 chain: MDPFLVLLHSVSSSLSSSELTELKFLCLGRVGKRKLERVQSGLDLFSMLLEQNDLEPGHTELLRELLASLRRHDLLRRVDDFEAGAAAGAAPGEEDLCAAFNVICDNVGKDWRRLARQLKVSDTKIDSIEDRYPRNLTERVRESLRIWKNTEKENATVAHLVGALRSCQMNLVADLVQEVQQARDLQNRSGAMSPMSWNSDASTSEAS

[5] = target: T2, FADD, full-length (FADD^FL), mEos3.1 …; experiment: FRET or BRET; DAmFRET: ratiometric FRET (AmFRET) between the green and the photoconverted red form of mEos3.1 fused to the same protein, single living S. cerevisiae cells by flow cytometry over the range of expression, no seed; settings: remark: other sources report otherwise
[6] = target: CARD9^CARD, mEos3.1 fusion (human) (UniProt Q9H257); experiment: as above
[7] = target: BCL10, full-length (FL), mEos3.1 fusion (human) (UniProt O95999); experiment: as above
[8] = target: T3, DFD of CASP1 (CASP1^CARD), mEos3.1 fusion (human), P29466; experiment: as above; settings: remark: other sources report otherwise
T3 chain: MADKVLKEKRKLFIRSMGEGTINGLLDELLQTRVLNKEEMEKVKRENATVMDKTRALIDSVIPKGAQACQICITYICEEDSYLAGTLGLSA

- binding [1]: binds
Molecule: ASC from zebrafish (Danio rerio), mEos3.1 fusion (from UniProt Q9I9N6 1-203)

- binding [2]: no binding
Molecule: APAF1^CARD, mEos3.1 fusion (from UniProt O14727 1-90) (domain or fragment)

- binding [3]: binds
B1: TRADD, full-length (FL), mEos3.1 fusion, Q15628 1-312 (protein)
chain: T1 chain

- binding [4]: binds
- binding [5]: binds
B2: FADD, full-length (FADD^FL), mEos3.1 fusion, Q13158 1-208 (protein)
chain: T2 chain

- binding [6]: binds
B3: CARD9^CARD, mEos3.1 fusion (domain or fragment, UniProt Q9H257 6-98)
chain: NDDECWSVLEGFRVTLTSVIDPSRITPYLRQCKVLNPDDEEQVLSDPNLVIRKRKVGVLLDILQRTGHKGYVAFLESLELYYPQLYKKVTGKE

- binding [7]: binds
B4: BCL10, full-length (FL), mEos3.1 fusion (protein, UniProt O95999 1-233)
chain: MEPTAPSLTEEDLTEVKKDALENLRVYLCEKIIAERHFDHLRAKKILSREDTEEISCRTSSRKRAGKLLDYLQENPKGLDTLVESIRREKTQNFLIQKITDEVLKLRNIKLEHLKGLKCSSCEPFPDGATNNLSRSNSDESNFSEKLRASTVMYHPEGESSTTPFFSTNSSLNLPVLEVGRTENTIFSSTTLPRPGDPGAPPLPPDLQLEEEGTCANSSEMFLPLRSRTVSRQ

- binding [8]: binds
B5: DFD of CASP1 (CASP1^CARD), mEos3.1 fusion, P29466 1-91 (domain or fragment)
chain: T3 chain
